{"source": "PubChem BioAssay AID1259254 (NCATS, 2017)", "assay": "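Genome-wide screen for genes that prevent DNA re-replication in cancer cells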 (primary screen)", "system": "human HCT116 colorectal cancer cells", "knock-down reagent": "single siRNA against human genes", "timing": "3 days", "measurement": "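Imaged Hoechst DNA stain sorts each cell into a cycle phase by DNA amount; per plate, G2 fraction set to 0% for non-targeting and 100% for GMNN siRNA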", "reading the numbers": "G2 robust z-score: higher = more G2 cells, more excess DNA replication", "hit rule": "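Active siRNAs have a G2 robust z of 5 or more median absolute deviations over the median, which in these data means about 38% or higher of GMNN control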", "note": "The deposit covers about 59,000 reagents; this is a part drawn at random. In the full data, about 1,550 (2.6%) got an active call. 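G2 share is only a proxy for re-replication; each gene was hit by three separate siRNAs, and active genes were retested.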 The numbers tell different reagents against one gene apart. Not all columns of the deposit are shown. Not given: the amount of reagent."}
{"gene": "BRMS1 (GeneID 25855)", "reagent": 1, "G2 robust z-score": 0.162, "outcome": "inactive"}
{"gene": "BRMS1 (GeneID 25855)", "reagent": 2, "G2 robust z-score": -1.03, "outcome": "inactive"}
{"gene": "BRMS1 (GeneID 25855)", "reagent": 3, "G2 robust z-score": 0.388, "outcome": "inactive"}
{"gene": "HSD17B7 (GeneID 51478)", "reagent": 1, "G2 robust z-score": -1.09, "outcome": "inactive"}
{"gene": "HSD17B7 (GeneID 51478)", "reagent": 2, "G2 robust z-score": 2.55, "outcome": "inactive"}
{"gene": "HSD17B7 (GeneID 51478)", "reagent": 3, "G2 robust z-score": 0.24, "outcome": "inactive"}
{"gene": "RTP4 (GeneID 64108)", "reagent": 1, "G2 robust z-score": 2.19, "outcome": "inactive"}
{"gene": "RTP4 (GeneID 64108)", "reagent": 2, "G2 robust z-score": -0.681, "outcome": "inactive"}
{"gene": "RTP4 (GeneID 64108)", "reagent": 3, "G2 robust z-score": -0.648, "outcome": "inactive"}
{"gene": "PFN1P3 (GeneID 200025)", "reagent": 1, "G2 robust z-score": 1.65, "outcome": "inactive"}
{"gene": "PFN1P3 (GeneID 200025)", "reagent": 2, "G2 robust z-score": -0.309, "outcome": "inactive"}
{"gene": "PFN1P3 (GeneID 200025)", "reagent": 3, "G2 robust z-score": 0.804, "outcome": "inactive"}
